From PubChem BioAssay AID504467 (National Center for Advancing Translational Sciences (NCATS), 2011)
Out of some 330,000 compounds screened, about 7,700 (2.3%) were called active. The shares of active, inactive and inconclusive entries below differ from those in the screen. Calls come from the whole dose curve; as a rule, active = well fitted inhibition curve with a large enough effect; inconclusive = small, poorly fitted or top-dose-only effect, or effect the other way; inactive = flat fitted curve, though single readings scatter. Potencies of inconclusive entries are doubtful fits and often do not repeat.

assay: qHTS screen for small molecules that inhibit ELG1-dependent DNA repair in human embryonic kidney (HEK293T) cells expressing luciferase-tagged ELG1; conditions: HEK293T ELG1-luciferase reporter, luminescence, 16 h, DNA damage induced by 5-fluorouridine; series mostly up to 46.1 µM; note: nearly all actives have a fitted effect of over 55% in size
Summary of the method: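 5-Fluorouridine DNA damage + compound/DMSO, 2,000 cells/well, 16 h, 37 °C/5% CO2. ONE-Glo, 30 min RT, luminescence. Readout = decrease in reporter signal.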
Potency is the fitted concentration of half-maximal effect.

Row | SMILES | Potency
1 | O=C(O)CN1CCCC1=Nc1ccccc1 | inactive
2 | O=C(N/N=C/c1c[nH]c2ccccc12)c1cccc(Cl)c1 | inconclusive: 18.3 µM [activator, partial curve, poor fit]
3 | CCOc1ccccc1C(=O)NC1CC2CCCC(C1)N2Cc1nnnn1Cc1ccco1 (configuration not stated) | inconclusive: 23.1 µM [inhibitor, partial curve]
4 | COc1ccc(C(=O)C2CCCN(C(=O)c3cccc(Cl)c3F)C2)cc1OC (configuration not stated) | inconclusive: 32.6 µM [inhibitor, single point]
5 | Fc1ccccc1Cc1noc(CN2CCC(OCc3cccnc3)CC2)n1 | inconclusive: 18.3 µM [activator, partial curve]
6 | O=C(CN1CCc2ccccc2C1)NCC(=O)Nc1ccc(F)cc1 | inconclusive: 29.1 µM [activator, single point]
7 | O=C(CCCn1c(=S)[nH]c2ccc(Br)cc2c1=O)N1CCN(c2ccccn2)CC1 | active: 18.4 µM
8 | Nc1ccccc1C(=O)Nc1cccc(C(=O)O)c1 | inactive
9 | C=CCNC(=S)Nc1nc2c(cc1C(=O)OCC)CCCC2 | inconclusive: 18.4 µM [activator, single point]
10 | COc1cccc(Cn2nnc(C(=O)Nc3cc(C)ccc3OC)c2N)c1 | inconclusive: 29.1 µM [inhibitor, single point]
11 | CS(=O)(=O)N(CC(=O)N1CCN(c2ccccc2F)CC1)C1CCCCC1 | inconclusive: 5.62 µM [inhibitor, single point]
12 | O=C(Nc1ccccc1O)c1csc2c1CCCC2 | inconclusive: 8.2 µM [activator, partial curve]
13 | CCN(CC)S(=O)(=O)c1cc(NC(=O)CN2CCN(c3ccccn3)CC2)ccc1C | inconclusive: 20.6 µM [inhibitor, partial curve]
14 | Cc1ccc(-c2ccc(/C=N/NC(=S)Nc3ccccc3)o2)cc1[N+](=O)[O-] | inconclusive: 29.1 µM [inhibitor, single point]
15 | CC(=O)c1ccc(-c2nnc(CCC(=O)N(C)Cc3cccc4cnccc34)o2)s1 | inconclusive: 23.1 µM [inhibitor, single point]
16 | CCC(C)c1ccc(C(C)NC(=S)NC2CCCCC2)cc1 (configuration not stated) | inconclusive: 10.3 µM [inhibitor, partial curve]
17 | COC(=O)c1ccccc1CON1C(=O)C(C)(C)N(OCc2ccccc2C(=O)OC)C(=O)C1(C)C | inconclusive: 29.1 µM [inhibitor, single point]
18 | Clc1cccc(Cl)c1Cn1cnc2c(NCc3ccco3)ncnc21 | inconclusive: 9.2 µM [inhibitor, partial curve]
19 | O=C(Cn1cc2c(n1)CCCC2)NCc1cccnc1 | inconclusive: 13 µM [activator, partial curve, poor fit]
20 | Cc1ccc(C(=O)COC(=O)c2ccco2)cc1C | inconclusive: 29.1 µM [activator, single point]
21 | CCN(CC)c1nc(OCCNC(=O)Nc2ccccc2)nc(N(CC)CC)n1 | active: 18.4 µM

Two of these compounds in a different format.
COC(=O)c1ccccc1CON1C(=O)C(C)(C)N(OCc2ccccc2C(=O)OC)C(=O)C1(C)C
  Potency: inconclusive: 29.1 µM [inhibitor, single point]
Clc1cccc(Cl)c1Cn1cnc2c(NCc3ccco3)ncnc21
  Potency: inconclusive: 9.2 µM [inhibitor, partial curve]

Further entries

Row | SMILES | Potency
22 | CC(=O)c1cccc(NC(=O)CN(Cc2ccccc2)S(C)(=O)=O)c1 | inconclusive: 13 µM [inhibitor, partial curve]
23 | CCN1C=CC(=C2C(=O)c3ccccc3C2=O)C=C1 | inconclusive: 0.058 µM [activator, partial curve, poor fit]
24 | COc1cc(OC)cc(C(=O)Nc2nc(CC(=O)NCc3ccc(F)cc3)cs2)c1 | inconclusive: 4.61 µM [inhibitor, single point]
25 | COc1ccccc1C(=O)NNC(=O)c1ccc(Br)o1 | inconclusive: 16.4 µM [activator, partial curve]
26 | CC(C)C(=O)Nc1ccc(S(=O)(=O)N2CCC(c3nc4ccccc4[nH]3)CC2)cc1 | active: 5.8 µM
27 | Cc1nc(/C=C/c2ccccc2)[nH]c(=O)c1-c1ccccc1 | inconclusive: 0.731 µM [activator, full curve]
28 | CC(=O)c1ccc(NC(=O)CCc2nc3sc4c(c3c(=O)[nH]2)CCCC4)cc1 | inactive
29 | ClCc1csc(-c2ccccc2Cl)n1 | inactive
30 | COc1ccc(C2CC(c3ccc4ccccc4c3)=NN2C(=O)CN2C(=O)CCC2=O)cc1 (configuration not stated) | inactive
31 | c1ccc2c(c1)nc(-c1ccncc1)n2CCNc1nc(CN2CCCCC2)cs1 | inactive
32 | CC[C@@H](C)[C@@H]1CN([C@@H](CN2CCC[C@H]2CN2C(N)=NC[C@H]2CC(C)C)C(C)C)C(=N)N1CCc1ccc(Cl)c(Cl)c1 | inactive
33 | O=C(O)Cc1csc(Nc2cccc(Cl)c2)n1 | inconclusive: 16.4 µM [activator, partial curve, poor fit]
34 | O=C(Nc1ccc2c(c1)OCCO2)c1cccc(Cl)c1Cl | inconclusive: 3.66 µM [activator, full curve]
35 | O=C(NC(=S)Nc1ccc2oc(-c3cccnc3)nc2c1)c1cccc(Cl)c1 | inactive
36 | COCCn1c(-c2ccccc2)cnc1SCC(=O)Nc1cccc2ccccc12 | inconclusive: 23.1 µM [inhibitor, single point]
37 | O=C(NC(=S)Nc1ccc(CN2CCCCC2)cc1)c1ccco1 | inconclusive: 25.9 µM [activator, single point]
38 | CC(C)(C)NC(=O)C(c1ccc(-c2ccccc2)cc1)N(C[C@H]1CC[C@@H]([C@@H]2CC[C@H](CO)O2)O1)C(=O)c1ccccc1F (some centres not stated) | inconclusive: 20.6 µM [inhibitor, partial curve, poor fit]
39 | Cn1c(SCC(=O)N2CCc3ccccc32)nc2cccnc21 | inconclusive: 16.4 µM [inhibitor, partial curve, poor fit]
40 | COc1ccc(/C=C/C(=O)NC(=S)NNC(=O)c2cnccn2)cc1 | inconclusive: 4.11 µM [inhibitor, single point]
41 | COc1cc(CNCCN2CCOCC2)ccc1OCc1cccc(Cl)c1 | inconclusive: 18.4 µM [activator, single point]
42 | CCOC(=O)N1CCN(Cc2ccc3c(c2)OCO3)CC1 | inconclusive: 0.164 µM [inhibitor, full curve, poor fit]
